Experimental data as given in patent US20080176814, “DNA-BASED APTAMERS FOR HUMAN CATHEPSIN G” (GENTIUM SPA, published 2008).
The comparison behind a weaker result is the experiment's own reference, which may not be listed here. Where a protein sequence is shown, tags need not be part of it. The exact form of at least one protein or probe is not confirmed.

Molecular target: T1, Cathepsin G (Homo sapiens) (UniProt P08311)
T1 sequence (looked up, limits assumed): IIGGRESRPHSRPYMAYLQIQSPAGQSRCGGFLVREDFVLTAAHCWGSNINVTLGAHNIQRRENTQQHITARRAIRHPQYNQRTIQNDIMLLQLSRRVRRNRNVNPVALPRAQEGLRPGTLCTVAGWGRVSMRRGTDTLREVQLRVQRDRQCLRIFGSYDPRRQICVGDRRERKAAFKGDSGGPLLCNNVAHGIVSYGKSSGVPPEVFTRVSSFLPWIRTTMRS
Experiment: binding assay
Settings: purified native protein

Sequence	binding result (affinity chromatography, lower affinity than single-stranded CG51, variant of CG51 (=CG43))	Kd (affinity chromatography on Sepharose SP, 30 mM Tris pH 7.5, 150 mM NaCl, 5 mM KCl, 5 mM MgCl2, on ice, single-stranded DNA) [nM]
CAACGTGTGATATGTGGGTATACGCTTGGGTGTTACGCTGAGCACAGAGGGTATTCGTGT (double strand) [double stranded CG51]	binds more weakly	
CAACGTGTGATATGTGGGTATACGCTTGGGTGTTACGCTGAGCACAGAGGGTATTCGTGT [CG51 (=CG43)]		0.9
